Earlier results as cited in patent US9522128B2 (FUNDACION PARA LA INVESTIGACION BIOMEDICA DEL HOSPITAL …, priority 2008, dated 2016).
At least one compound was matched to its structure with a doubt left.

Conditions: cited from earlier work

C=CC[C@@H]1/C=C(\C)C[C@H](C)C[C@H](OC)[C@H]2O[C@@](O)(C(=O)C(=O)N3CCCC[C@H]3C(=O)O[C@H](/C(C)=C/[C@@H]3CC[C@@H](O)[C@H](OC)C3)[C@H](C)[C@@H](O)CC1=O)[C@H](C)C[C@@H]2OC.O [Tacrolimus]
ACIDITY/BASICITY: apolar
